Results: US6117840A, “CS-1 peptidomimetics, compositions and methods of using the same” (Cytel Corporation, priority 1997, dated 2000)
Not every detail of the peptide structures is certain; ends, links or a residue may be inferred. Peptide text beside a SMILES is read from it. * marks the point of attachment. Morpholide = C1CN(*)CCO1; PhAc = O=C(Cc1ccccc1)*

System: New Zealand white rabbits
Assay: Treatment of asthmatic rabbits (house dust mite antigen challenge)
Type: in vivo, rabbit
Details: six hours after challenge

For `CC(C)C[C@H](NC(=O)Cc1ccccc1)C(=O)N[C@@H](CC(=O)O)C(=O)N[C@@H](Cc1ccccc1)C(=O)N1CCOCC1` [X L D F Z phenylacetyl morpholinamide, N--phenylacetyl--Leu--Asp--Phe--morpholinamide] (PhAc-Leu-Asp-Phe-Morpholide), the “Cdyn course after challenge (FIG. 4A)” value was “stayed at about the initial value” and the “RL course after challenge (FIG. 4B)” value was “remained between the initial value and about 200% of that value”.
